Laboratory results taken from patent US20210284668A1, “GOLD (I)-PHOSPHINE 1,2,3-TRIAZOLE DERIVATIVES WITH ANTIBIOTIC PROPERTIES” (Centre National de la Recherche Scientifique, priority 2018, published 2021).
Values joined by “and” are separate entries in the source; they are usually repeats but may differ in a detail not shown here. Equal values may be shown once. At least one read-out could not be matched to a standard name with certainty.

What was measured:
S. aureus ATCC25923 = assay: MIC by microdilution, S. aureus ATCC25923; format: cell-based, Staphylococcus aureus; settings: S. aureus ATCC25923 (MecA negative, wild-type), Mueller-Hinton broth, in duplicate
Method: (§1) The antibacterial profile of each derivative was evaluated by the standard microdilution method for susceptibility testing on 16 different strains, following the guidelines of CLSI. […]
(§2) Both series issued from the SAR study were evaluated for their antibacterial activity on a panel of characterized strains obtained from the French National Reference Centers for Staphylococci (Lyon, Pr. Fréderique Laurent) and for Enterococci (Caen, Pr. Vincent Cattoir), respectively. […]
(§3) The antibacterial activity of test compounds was evaluated on a selected panel of Gram-positive (4 Staphylococcus aureus, 4 Staphylococcus epidermidis, 3 Enterococcus faecalis, 3 Enterococcus faecium, 1 Clostridium difficile) and Gram-negative strains (1 Escherichia coli, 1 Klebsiella pneumoniae, 1 Pseudomonas aeruginosa, 1 Acinetacter baumannii) with known features of antibiotic resistance (from wild-type susceptibility to multi-drug resistance). The Minimal Inhibitory Concentration (MIC) of test compounds was determined in duplicate by the microdilution method in 96-well microplates with a final volume of 100 μL per well and Mueller-Hinton broth as the growth medium, as recommended by the CLSI (Clinical and Laboratory Standards Institute, document Mo7-A10, USA).

S. aureus ATCC700699 = assay: MIC by microdilution, S. aureus ATCC700699; format: cell-based, Staphylococcus aureus; parameters: unit not given here; settings: S. aureus ATCC700699 (MecA positive, glycopeptide resistant), in duplicate
Method: as §1, §2, §3

S. epidermidis ATCC14990 = assay: MIC by microdilution, S. epidermidis ATCC14990; format: cell-based, Staphylococcus epidermidis; settings: S. epidermidis ATCC14990 (MecA negative, wild-type), in duplicate
Method: as §1, §2, §3

E. faecalis JH2-2 = assay: MIC by microdilution, E. faecalis JH2-2; format: cell-based, Enterococcus faecalis; parameters: unit not given here; settings: E. faecalis JH2-2 (wild-type), in duplicate
Method: as §1, §2, §3

E. faecalis UCN41 = assay: MIC by microdilution, E. faecalis UCN41; format: cell-based, Enterococcus faecalis; parameters: unit not given here; settings: E. faecalis UCN41 (VanA positive, glycopeptide resistant), in duplicate
Method: as §1, §2, §3

In the case of `CC1(C)S[C@@H]2[C@H](NC(=O)[C@H](N)c3ccccc3)C(=O)N2[C@H]1C(=O)O` [Ampi, ampicillin, reference compound], the “Minimal Inhibitory Concentration (MIC)” value (S. aureus ATCC25923) is reported as 0.5 and 0.25, the “Minimal Inhibitory Concentration (MIC)” value (S. aureus ATCC700699) is reported as 8/>8 and 8 and >8 and the “Minimal Inhibitory Concentration (MIC)” value (S. epidermidis ATCC14990) is reported as 1 and 0.5. For the same molecule, the “Minimal Inhibitory Concentration (MIC)” value (E. faecalis JH2-2) was 0.25 and 0.5 and the “Minimal Inhibitory Concentration (MIC)” value (E. faecalis UCN41) was 0.5 and 1.
